No constants are given. Whether binding was seen depends on the method and setting. In cells and extracts the contact can be indirect. These calls come from enrichment with a bait or labelling near it, and not all partners need be listed.
molecular target: T1, PBX1 (human (endogenous in human glomerular MCs)) (UniProt P40424); experiment: affinity purification with mass spectrometry; mass spectrometry of PBX1-binding proteins in MCs; E3 ubiquitin ligases screened from both the HC and LN (DNA-IC stimulated) groups; only proteins with more than 1 peptide shown
T1 sequence: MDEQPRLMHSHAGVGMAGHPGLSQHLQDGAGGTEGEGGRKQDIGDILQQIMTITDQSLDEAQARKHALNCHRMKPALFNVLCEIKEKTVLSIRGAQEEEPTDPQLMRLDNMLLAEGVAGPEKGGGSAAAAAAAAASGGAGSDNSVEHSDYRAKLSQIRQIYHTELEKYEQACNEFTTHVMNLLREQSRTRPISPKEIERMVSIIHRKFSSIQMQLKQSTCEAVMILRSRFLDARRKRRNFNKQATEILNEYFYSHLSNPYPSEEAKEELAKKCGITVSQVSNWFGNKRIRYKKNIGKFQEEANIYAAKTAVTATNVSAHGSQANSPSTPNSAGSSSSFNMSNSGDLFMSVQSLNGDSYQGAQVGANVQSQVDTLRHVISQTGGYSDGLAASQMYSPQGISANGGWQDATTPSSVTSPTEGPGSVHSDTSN

Sequences of proteins named here, by UniProt entry; tags and fusion partners are left off.
UniProt P46934: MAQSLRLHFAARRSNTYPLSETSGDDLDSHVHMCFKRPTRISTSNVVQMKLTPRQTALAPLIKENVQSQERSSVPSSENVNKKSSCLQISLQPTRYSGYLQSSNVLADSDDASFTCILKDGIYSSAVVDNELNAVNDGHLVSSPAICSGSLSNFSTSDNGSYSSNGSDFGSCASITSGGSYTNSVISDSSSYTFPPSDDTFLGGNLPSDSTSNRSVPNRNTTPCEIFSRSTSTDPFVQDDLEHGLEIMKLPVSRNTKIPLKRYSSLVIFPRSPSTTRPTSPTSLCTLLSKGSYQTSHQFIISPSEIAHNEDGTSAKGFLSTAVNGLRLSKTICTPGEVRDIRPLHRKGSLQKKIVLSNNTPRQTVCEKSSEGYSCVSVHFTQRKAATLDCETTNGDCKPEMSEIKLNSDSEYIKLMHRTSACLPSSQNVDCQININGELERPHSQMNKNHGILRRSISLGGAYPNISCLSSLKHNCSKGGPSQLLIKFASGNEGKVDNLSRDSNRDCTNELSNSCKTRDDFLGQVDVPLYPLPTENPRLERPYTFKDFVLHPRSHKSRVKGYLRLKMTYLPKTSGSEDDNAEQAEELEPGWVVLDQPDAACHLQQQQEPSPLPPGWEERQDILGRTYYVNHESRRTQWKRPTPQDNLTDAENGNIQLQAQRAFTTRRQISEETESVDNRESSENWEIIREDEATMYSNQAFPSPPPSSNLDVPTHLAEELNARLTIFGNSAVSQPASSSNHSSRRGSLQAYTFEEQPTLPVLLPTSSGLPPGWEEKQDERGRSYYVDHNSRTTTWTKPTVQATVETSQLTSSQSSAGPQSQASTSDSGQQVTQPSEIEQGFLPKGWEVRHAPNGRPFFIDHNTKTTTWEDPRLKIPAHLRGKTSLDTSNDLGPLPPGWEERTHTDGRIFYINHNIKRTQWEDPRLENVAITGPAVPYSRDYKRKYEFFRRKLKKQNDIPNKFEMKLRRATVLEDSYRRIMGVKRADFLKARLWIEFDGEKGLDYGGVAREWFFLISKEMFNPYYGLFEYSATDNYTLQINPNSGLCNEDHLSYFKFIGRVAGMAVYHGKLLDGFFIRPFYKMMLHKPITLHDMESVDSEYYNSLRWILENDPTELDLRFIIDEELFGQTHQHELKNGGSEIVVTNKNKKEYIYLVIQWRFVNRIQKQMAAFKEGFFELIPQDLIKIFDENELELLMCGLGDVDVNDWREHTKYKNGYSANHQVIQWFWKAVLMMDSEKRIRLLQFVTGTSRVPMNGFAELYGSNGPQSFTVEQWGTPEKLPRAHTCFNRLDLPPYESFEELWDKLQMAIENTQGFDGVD
UniProt P19474: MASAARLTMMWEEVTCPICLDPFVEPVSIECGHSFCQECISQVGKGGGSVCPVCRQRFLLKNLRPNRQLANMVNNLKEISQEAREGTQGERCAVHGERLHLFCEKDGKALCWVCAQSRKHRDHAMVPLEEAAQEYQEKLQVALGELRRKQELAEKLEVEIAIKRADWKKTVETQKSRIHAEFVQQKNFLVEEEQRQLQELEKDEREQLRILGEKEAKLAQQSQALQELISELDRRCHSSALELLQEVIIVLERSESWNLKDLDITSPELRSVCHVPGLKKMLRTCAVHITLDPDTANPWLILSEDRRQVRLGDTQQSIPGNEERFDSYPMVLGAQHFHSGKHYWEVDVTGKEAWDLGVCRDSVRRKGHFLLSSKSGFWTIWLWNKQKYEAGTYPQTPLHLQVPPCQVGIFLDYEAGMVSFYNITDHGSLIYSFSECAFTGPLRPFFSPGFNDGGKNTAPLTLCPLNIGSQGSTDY

Substance	binding
NEDD4 (from UniProt P46934 1-1319) (enzyme)	binds
SIAH1B (enzyme)	binds
TRIM21 (from UniProt P19474 1-475) (enzyme)	binds
